The text below walks through data of paper PMC10981688.

By UniProt entry, the sequences of proteins in these tests, tags left out. Where a name states a change or a piece, a line headed by the entry shows the natural chain unless it says otherwise.
UniProt Q01518: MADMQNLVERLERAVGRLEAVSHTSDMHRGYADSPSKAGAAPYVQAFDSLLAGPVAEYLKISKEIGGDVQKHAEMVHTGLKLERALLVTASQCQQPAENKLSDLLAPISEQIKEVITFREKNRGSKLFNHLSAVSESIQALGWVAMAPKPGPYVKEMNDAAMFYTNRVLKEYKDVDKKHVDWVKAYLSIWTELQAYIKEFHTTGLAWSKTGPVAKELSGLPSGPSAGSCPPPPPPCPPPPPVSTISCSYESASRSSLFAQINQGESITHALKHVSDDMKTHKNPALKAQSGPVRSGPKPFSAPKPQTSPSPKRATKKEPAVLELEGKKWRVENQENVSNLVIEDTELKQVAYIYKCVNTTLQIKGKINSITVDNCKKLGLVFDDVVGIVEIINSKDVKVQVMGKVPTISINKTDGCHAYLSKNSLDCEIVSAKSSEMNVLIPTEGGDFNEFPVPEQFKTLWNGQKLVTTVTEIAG
UniProt Q05655: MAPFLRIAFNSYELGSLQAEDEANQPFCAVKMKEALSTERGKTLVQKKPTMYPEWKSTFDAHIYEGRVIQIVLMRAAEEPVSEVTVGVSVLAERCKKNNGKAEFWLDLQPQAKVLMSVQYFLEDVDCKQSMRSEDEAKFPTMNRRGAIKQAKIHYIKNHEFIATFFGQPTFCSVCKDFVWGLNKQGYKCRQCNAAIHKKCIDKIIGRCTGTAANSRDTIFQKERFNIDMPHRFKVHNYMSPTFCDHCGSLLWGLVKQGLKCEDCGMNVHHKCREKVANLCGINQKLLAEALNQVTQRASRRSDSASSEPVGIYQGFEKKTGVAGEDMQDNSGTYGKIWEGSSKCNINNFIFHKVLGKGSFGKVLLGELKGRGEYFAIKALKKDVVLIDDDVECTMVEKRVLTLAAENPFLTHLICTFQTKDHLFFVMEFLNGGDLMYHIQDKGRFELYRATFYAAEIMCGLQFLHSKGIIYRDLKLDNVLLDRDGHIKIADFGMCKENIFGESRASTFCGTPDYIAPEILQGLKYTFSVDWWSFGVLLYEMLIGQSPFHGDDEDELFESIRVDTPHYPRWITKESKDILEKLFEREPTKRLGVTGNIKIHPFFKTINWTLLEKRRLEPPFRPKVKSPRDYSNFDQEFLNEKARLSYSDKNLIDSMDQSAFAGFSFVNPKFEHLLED

These are yes or no findings as the source states them, for the method shown. Binding seen in cells or lysates may run through a third protein. Here binding means that the protein was enriched with, or labelled near, the bait; the list need not be complete.

The target of the assay is human CAP1 whose carboxyl-terminal end was conjugated with the Fc region of mouse immunoglobulin (human) (UniProt Q01518). Kind of assay: affinity purification with mass spectrometry; THP-1 lysate incubated with purified CAP1-mFc (control mFc), pulled down with mFc-specific beads, LC-MS/MS, SAINT scoring; only the target purified.

On to “PKCδ, endogenous in THP-1 monocytes (from UniProt Q05655 1-676) (enzyme)”, for which the binding entry is “binds”.
